Laboratory results taken from publication PMC11137178, “Protein disulfide isomerase-9 interacts with the lumenal region of the transmembrane endoplasmic reticulum stress sensor kinase, IRE1, to modulate the unfolded protein response in Arabidopsis” (Frontiers in Plant Science, 2024).
No constants are given. Whether binding was seen depends on the method and setting. Binding seen in cells or lysates may run through a third protein. Some entries that bind do so weakly or less than the wild type. Sequences can lack the tags named with a protein.

T1: PDI9:mCherry-KDEL (Arabidopsis thaliana, UniProt O48773 25-440)
T1 construct: Protein disulfide isomerase-9 (PDI9, PDI-M subfamily), Arabidopsis thaliana, At2g32920; made from the earlier construct PDI9:GFP-KDEL (Yuen et al., 2013) by exchanging GFP for mCherry; also called PDI9:Cherry-KDEL; PDI9:RFP; source: Arabidopsis leaf mesophyll protoplasts, transiently transfected, in living cells; not shown: mCherry-KDEL, C-terminal, kept
T1 sequence (looked up): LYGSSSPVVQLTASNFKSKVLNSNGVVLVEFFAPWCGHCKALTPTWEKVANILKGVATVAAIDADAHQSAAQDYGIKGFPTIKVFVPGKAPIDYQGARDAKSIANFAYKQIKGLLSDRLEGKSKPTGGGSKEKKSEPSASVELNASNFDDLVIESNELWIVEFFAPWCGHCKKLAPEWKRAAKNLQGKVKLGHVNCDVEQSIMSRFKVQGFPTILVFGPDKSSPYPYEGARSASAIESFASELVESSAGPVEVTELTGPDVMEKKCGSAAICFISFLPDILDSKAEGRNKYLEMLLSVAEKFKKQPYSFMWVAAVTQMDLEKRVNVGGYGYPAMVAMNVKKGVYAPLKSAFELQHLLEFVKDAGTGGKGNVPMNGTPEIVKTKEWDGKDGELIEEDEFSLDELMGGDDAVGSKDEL

T2: HA : PDI9 (Arabidopsis thaliana) (UniProt O48773)
T2 sequence: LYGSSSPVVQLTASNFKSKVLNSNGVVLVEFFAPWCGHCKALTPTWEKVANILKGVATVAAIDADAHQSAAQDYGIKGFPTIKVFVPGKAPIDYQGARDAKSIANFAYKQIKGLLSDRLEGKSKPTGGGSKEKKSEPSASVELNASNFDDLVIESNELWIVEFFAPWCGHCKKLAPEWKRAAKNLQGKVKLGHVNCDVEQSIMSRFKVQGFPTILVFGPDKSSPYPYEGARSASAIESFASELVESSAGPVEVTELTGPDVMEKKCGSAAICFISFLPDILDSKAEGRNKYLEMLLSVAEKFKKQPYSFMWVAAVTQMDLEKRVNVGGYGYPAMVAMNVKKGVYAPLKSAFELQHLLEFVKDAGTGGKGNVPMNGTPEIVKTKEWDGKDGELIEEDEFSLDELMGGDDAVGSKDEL

T3: PDI9(C195A):mCherry-KDEL (Arabidopsis thaliana) (UniProt O48773)
T3 sequence: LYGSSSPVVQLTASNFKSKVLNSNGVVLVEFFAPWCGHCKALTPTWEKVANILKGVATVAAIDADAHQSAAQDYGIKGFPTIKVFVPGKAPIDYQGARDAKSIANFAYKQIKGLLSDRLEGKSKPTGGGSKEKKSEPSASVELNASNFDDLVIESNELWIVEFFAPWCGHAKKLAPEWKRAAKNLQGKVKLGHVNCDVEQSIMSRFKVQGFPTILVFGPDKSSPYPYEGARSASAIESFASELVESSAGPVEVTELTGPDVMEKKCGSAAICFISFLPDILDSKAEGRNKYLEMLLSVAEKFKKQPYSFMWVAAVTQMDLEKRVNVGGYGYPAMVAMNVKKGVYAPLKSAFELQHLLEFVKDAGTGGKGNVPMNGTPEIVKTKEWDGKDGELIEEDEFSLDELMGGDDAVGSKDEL


Key:
[1] = biological target: T1, PDI9:mCherry-KDEL; experiment: FRET or BRET; FLIM-FRET in living Arabidopsis leaf mesophyll protoplasts coexpressing the GFP donor (on IRE1) and the mCherry acceptor (on PDI9), 16-18 h after transfection; GFP lifetime per region of interest; E = (1 - ti/t0) x 100% against single-transfected GFP:IRE1
[2] = biological target: T2, HA : PDI9 (Arabidopsis thaliana); experiment: co-IP; extracts of Col-0 protoplasts cotransfected with HA:PDI9 and GFP:IRE1A or GFP:IRE1B; nonreducing buffer (10 mM HEPES pH 7.5, 100 mM NaCl, 1 mM EDTA, 10% glycerol, 0.5% Triton X-100); anti-HA magnetic beads, 3 h, 4°C; blots with anti-HA and anti-GFP
[3] = biological target: T3, PDI9(C195A):mCherry-KDEL (Arabidopsis thaliana); experiment: FRET or BRET; FLIM-FRET in living Arabidopsis leaf mesophyll protoplasts coexpressing the GFP donor (on IRE1) and the mCherry acceptor (on PDI9), 16-18 h after transfection; GFP lifetime per region of interest; E = (1 - ti/t0) x 100% against single-transfected GFP:IRE1

binding [1] | binding [2] | binding [3] | Binder
binds | – | – | GFP : IRE1B(C222A) (receptor, UniProt Q93VJ2 22-881) FKGSEISKFYDKSISNQISQSDRESGYVLVSTVDGSISLVDMSSQKLDWTFHTNEPIYSSYQAPHYHYTTDEERSSVLGDDFYMDCDKDWRLYNSSVRKGKRVNEIVDASEFIGTLPYTSTDRIVLGKKDTSVFLLDWKTGKLVKRYRMDELYSNTVVENDKEKAIVLSKEAPLLFGSGFKKSEDFPELVYIERKDFKIQAISKFGDVLWSVSYAKMEAKLQNHESVQFISGLSSSVGKNQFPLSYTTSVPMVQLRNVKYETLFPRLGFLDEALYLPFQDRKPNQLAIGDGNQLTLPGNKEAEEVLSLPLPETVISQITDIIDGSTKQAGFASKFSGLIVLIFGFCVTMLSVCGLFFYRLRQSIRIKEPYVSEVPIATPKKKKSKKNGTTKAVHKKENGFISGGNKDPSHEENEKRLLTAFPGLNNSSAEGYRVGKLFVSNKEIAKGSNGTVVLEGSYEGRLVAVKRLVQSHHDVAQKEILNLMASDKHSNIVRWYGVDQDEHFIYISLELCACSLNDLIYASSALLESPMASSSIHSIQINPIFENGKGVELWKENGHPSPVLLKLMRDIVAGLVHLHDIGIVHRDLKPQNVLIVKNSSLCAKLSDMGISKRLPADTSALTRNSTGLGSGSSGWQAPEQLRNERQTRAVDLFSLGCVLFFCMTGGKHPYGDNYERDVNVLNDQKDLFLIESLPEAVHLLTGLLNPDPNLRPRAQDVMHHPLFWNSDMRLSFLRDASDRVELENREEGSQLLAALESTAAVTLNGRWDEKLDSIFLDNIGRYRRYKFDSIRDLLRVIRNKLNHYRELPKELQELLGSVPEGFERYFSSRFPKLLIQVYTVLFDYCNNEEFFFKYSKTTVF
– | binds | binds | GFP : IRE1B (receptor, Arabidopsis thaliana, UniProt Q93VJ2 22-881, looked up, IRE1B, Arabidopsis thaliana, At5g24360; mature polypeptide region amplified from Col-0 genomic DNA and placed after the IRE1B signal peptide and GFP; Construct order: IRE1B signal peptide, GFP, mature IRE1B; source: Arabidopsis leaf mesophyll protoplasts, transiently transfected; in living cells (FLIM-FRET) and in protoplast extract (co-I.P.); not shown: GFP (eGFP S65T), N-terminal, kept) FKGSEISKFYDKSISNQISQSDRESGYVLVSTVDGSISLVDMSSQKLDWTFHTNEPIYSSYQAPHYHYTTDEERSSVLGDDFYMDCDKDWRLYNSSVRKGKRVNEIVDASEFIGTLPYTSTDRIVLGKKDTSVFLLDWKTGKLVKRYRMDELYSNTVVENDKEKAIVLSKEAPLLFGSGFKKSEDFPELVYIERKDFKIQCISKFGDVLWSVSYAKMEAKLQNHESVQFISGLSSSVGKNQFPLSYTTSVPMVQLRNVKYETLFPRLGFLDEALYLPFQDRKPNQLAIGDGNQLTLPGNKEAEEVLSLPLPETVISQITDIIDGSTKQAGFASKFSGLIVLIFGFCVTMLSVCGLFFYRLRQSIRIKEPYVSEVPIATPKKKKSKKNGTTKAVHKKENGFISGGNKDPSHEENEKRLLTAFPGLNNSSAEGYRVGKLFVSNKEIAKGSNGTVVLEGSYEGRLVAVKRLVQSHHDVAQKEILNLMASDKHSNIVRWYGVDQDEHFIYISLELCACSLNDLIYASSALLESPMASSSIHSIQINPIFENGKGVELWKENGHPSPVLLKLMRDIVAGLVHLHDIGIVHRDLKPQNVLIVKNSSLCAKLSDMGISKRLPADTSALTRNSTGLGSGSSGWQAPEQLRNERQTRAVDLFSLGCVLFFCMTGGKHPYGDNYERDVNVLNDQKDLFLIESLPEAVHLLTGLLNPDPNLRPRAQDVMHHPLFWNSDMRLSFLRDASDRVELENREEGSQLLAALESTAAVTLNGRWDEKLDSIFLDNIGRYRRYKFDSIRDLLRVIRNKLNHYRELPKELQELLGSVPEGFERYFSSRFPKLLIQVYTVLFDYCNNEEFFFKYSKTTVF
binds | – | – | GFP : IRE1A(C257A) (receptor, UniProt Q9C5S2 31-841) DDVTYPIVPSSPGRRSILQIRREPPTEPNTKLVVDRDGKVFLKQQPKETPYWSFSTGSPMHSLYQAPANNNTENATEITRPHIIVEYLNNSKAATTVDGYHNWTVQEFFRQKPLVTDDGVTLGSETTSAYLVDGRSGRLIHVYKSTGDTKITNALVKPASTEDFVNEPLLIRRTDSKLEHFSKTTGKLVWNLTVSHFRAALLCDPVFNSGYDLGPKLQTGIYMPLLAGSQIDVRGPEIVIRVLHDQPMNVKMLPSPSLNHFESENSIMPFGKARESRKLQEQHKQKYTYLFGQWSPVKLLAPLVLLGVVVSVFIKKFSSRGSDVSLKAGPSKKKKNRKSAKDTNRQSVPRGQDQFELIEGGQMLLGFNNFQSGATDGRKIGKLFLSSKEIAKGSNGTVVFEGIYEGRPVAVKRLVRSHHEVAFKEIQNLIASDQHTNIIRWYGVEYDQDFVYLSLERCTCSLDDLIKSYLEFSMTKVLENNDSTEGVAAYKIQLDSLEGVIKGNNFWKVGGHPSPLMLKLMRDIVCGIVHLHELGIVHRDLKPQNVLISKDMTLSAKLSDMGISKRMSRDMSSLGHLATGSGSSGWQAPEQLLQGRQTRAVDMFSLGCVIFYTITGCKHPFGDDLERDVNIVKNKVDLFLVEHVPEASDLISRLLNPDPDLRPSATEVLLHPMFWNSEMRLSFLRDASDRVELENREADSEILKAMESTAPVAIGGKWDEKLEPVFITNIGRYRRYKYDSIRDLLRVIRNKLNHHRELPPEIQELVGTVPEGFDEYFAVRFPKLLIEVYRVISLHCREEEVFRKYFKCDII
– | binds | binds | GFP : IRE1A (receptor, Arabidopsis thaliana, UniProt Q9C5S2 31-841, looked up, IRE1A (inositol-requiring enzyme-1 kinase), Arabidopsis thaliana, At2g17520; mature polypeptide region amplified from Col-0 genomic DNA and placed after the IRE1A signal peptide and GFP; Construct order: IRE1A signal peptide, GFP, mature IRE1A; source: Arabidopsis leaf mesophyll protoplasts, transiently transfected; in living cells (FLIM-FRET) and in protoplast extract (co-I.P.); not shown: GFP …) DDVTYPIVPSSPGRRSILQIRREPPTEPNTKLVVDRDGKVFLKQQPKETPYWSFSTGSPMHSLYQAPANNNTENATEITRPHIIVEYLNNSKAATTVDGYHNWTVQEFFRQKPLVTDDGVTLGSETTSAYLVDGRSGRLIHVYKSTGDTKITNALVKPASTEDFVNEPLLIRRTDSKLEHFSKTTGKLVWNLTVSHFRAALLCDPVFNSGYDLGPKLQTGIYMPLLCGSQIDVRGPEIVIRVLHDQPMNVKMLPSPSLNHFESENSIMPFGKARESRKLQEQHKQKYTYLFGQWSPVKLLAPLVLLGVVVSVFIKKFSSRGSDVSLKAGPSKKKKNRKSAKDTNRQSVPRGQDQFELIEGGQMLLGFNNFQSGATDGRKIGKLFLSSKEIAKGSNGTVVFEGIYEGRPVAVKRLVRSHHEVAFKEIQNLIASDQHTNIIRWYGVEYDQDFVYLSLERCTCSLDDLIKSYLEFSMTKVLENNDSTEGVAAYKIQLDSLEGVIKGNNFWKVGGHPSPLMLKLMRDIVCGIVHLHELGIVHRDLKPQNVLISKDMTLSAKLSDMGISKRMSRDMSSLGHLATGSGSSGWQAPEQLLQGRQTRAVDMFSLGCVIFYTITGCKHPFGDDLERDVNIVKNKVDLFLVEHVPEASDLISRLLNPDPDLRPSATEVLLHPMFWNSEMRLSFLRDASDRVELENREADSEILKAMESTAPVAIGGKWDEKLEPVFITNIGRYRRYKYDSIRDLLRVIRNKLNHHRELPPEIQELVGTVPEGFDEYFAVRFPKLLIEVYRVISLHCREEEVFRKYFKCDII
